Source: patent US9884812B2, “Use of DDX3X inhibitors for the treatment of pneumovirus infections” (priority 2014, dated 2018)
Some entries share one result that the patent states for a list of compounds.

Tested on: HEp2 cells
Assay: MTT toxicity assay
Assay type: cell-based
Conditions: over the time course
Protocol: All experiments shown were carried out in HEp2 cells. Cells were grown in 96 well plates overnight as previously described in 10% FCS medium to 95% confluence level. The medium was aspirated off and replaced with 200ul media with 2% FCS +/− compounds in DMSO carrier as indicated at an identical dilution series to that used in the plaque assays. 8 wells were used per compound/carrier alone dilution. An additional 2 rows of 8 cells were grown in medium alone for reference and subsequently 8 would be used as a cell death control as described below. Cells were incubated at 33° C. as indicated. If the incubation period exceeded 4 days the medium was replaced with the appropriate amount of fresh medium plus compound.
MTT assays were commenced 4 hours before the time period expired. Here 20 uL of MTT [(3-{4,5-dimethylthiazol-2-yl}-2,5-diphenyltetrazolium bromide)] solution (7.5 mg/ml in
PBS) was added. […] The cells were placed back in the incubator at 33° C. After 4 hours, 100 μL of a stop solution (50% formamide, 20% w/v SDS) was added and pipetted to dissolve the substrate. Plates were then left overnight to allow the bubbles to disappear and the OD was recorded at 595 nm. Following subtraction of background solution colour (cell death control), the optical density was expressed as a percentage compared to the DMSO control on each appropriate plate.

| SMILES | Concentration above which inhibition of activity is seen (MTT) |
| --- | --- |
| CSc1cccc(NC(=O)Nc2ccccc2C)c1 [Compound 4, 1-(2-methylphenyl)-3-[3-(methylsulfanyl)phenyl]urea] | above 10 μM |
| Cc1ccccc1NC(=O)Nc1ccc(C#N)cc1 [Compound 6, 1-(4-cyanophenyl)-3-(2-methylphenyl)urea] | above 10 μM |
| CSc1ccc(NC(=O)NCCCOCCOCCOCCCNC(=O)Nc2ccc(SC)cc2)cc1 [Compound 37, 1-[4-(methylsulfanyl)phenyl]-3-[3-(2-{2-[3-({[4-(methylsulfanyl)-phenyl]carbamoyl}amino)propoxy]ethoxy}ethoxy)propyl]urea] | above 10 μM |
